For at least one compound, name, drawing or mass did not settle the structure.
What was measured:
[1] = target: T1, hTAS2R16 (Homo sapiens, UniProt Q9NYV7, R222H); test: FLIPR calcium assay, hTAS2R16-expressing HEK293/15 transfectants; assay type: cell-based
T1 construct: gene-specific primers that span the complete coding region of the individual hTAS2R genes; first 45 amino acids of rat somatostatin type 3 receptor (cell surface-targeting signal) (N); expressed in transfected cells; host or cells: HEK293/15 cells (HEK293 stably expressing Galpha15), transient transfection
T1 sequence (Q9NYV7 1-291 R222H): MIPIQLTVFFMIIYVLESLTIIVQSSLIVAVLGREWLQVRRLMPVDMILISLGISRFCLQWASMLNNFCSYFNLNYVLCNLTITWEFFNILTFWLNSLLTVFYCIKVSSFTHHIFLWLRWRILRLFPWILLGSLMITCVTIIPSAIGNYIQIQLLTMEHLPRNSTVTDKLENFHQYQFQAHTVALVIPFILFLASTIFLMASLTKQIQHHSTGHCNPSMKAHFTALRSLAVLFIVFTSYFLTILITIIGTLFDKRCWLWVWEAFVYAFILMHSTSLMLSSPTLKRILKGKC
Protocol: A fluorescence imaging plate reader (FLIPR, Molecular Devices) was used to functionally screen cell populations transiently transfected with expression vectors encoding the above-described 24 bitter receptors and to establish concentration-response curves for hTAS2R16 and hTASR10. […] For the FLIPR experiments the HEK293/15 cells were grown to 50% confluence. […] After 48 h the cells in each well were transfected using Lipofectamine 2000 and 24-30 h later were loaded with FIuo4AM (Molecular Probes). Thereafter they were stimulated with bitter compounds (SigmaAldrich, further purified by reversed-phase HPLC to >99% purity). Calcium signals were recorded simultaneously from each well at 1 Hz at 510 nm after excitation at 488 nm and the recordings were corrected for cell density. […] The calculations rest on at least four independent transfection experiments.
EC50 and threshold values obtained with hTAS2R16-expressing transfectants are shown in Table 1 below and the results are described in Example 4.

[2] = target: T1, hTAS2R16; test: FLIPR assay, heterologous expression of hTAS2R16; assay type: cell-based
Text: Transient transfection of TAS2Rs into HEK-293T-Gα16gustducin44 cells.

## N#CC(O[C@@H]1O[C@H](CO[C@@H]2O[C@H](CO)[C@@H](O)[C@H](O)[C@H]2O)[C@@H](O)[C@H](O)[C@H]1O)c1ccccc1 (some centres unmarked) [Compound 8, amygdalin]
[1]
  Threshold Value FLIPR: 2.3 ± 0.9 mM
[2]
  Threshold: 2.3 ± 0.9 mM
